Test results as given in the supplement of paper PMC8728848.
This is one part of the list.

Tests used:
Experiment in all cases: glycan array binding signal (z-score within array); higher = stronger binding
Conditions in all cases: glycan notation: IUPAC condensed, linker removed
[1] = molecular target: Gal(b1-3)GlcNAc(b1-6)[Gal(b1-3)]GalNAc
How it was run: (§1)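 Glycan array data came from 3228 arrays in the Consortium for Functional Glycomics database, and only arrays with an available protein sequence were kept. Glycan names were put into IUPAC-condensed notation, and columns mapping to the same glycan were averaged. The binding signal is a within-array Z-score, averaged across arrays of one protein sequence run at different concentrations or buffers and across linkers. A negative Z-score can be read as non-binding.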

Gal(b1-3)GlcNAc6S = molecular target: Gal(b1-3)GlcNAc6S
How it was run: as §1

[2] = molecular target: Gal(b1-3)[Fuc(a1-4)]GlcNAc
How it was run: as §1

[3] = molecular target: Gal(b1-3)[Fuc(a1-4)]GlcNAc(b1-2)Man
How it was run: as §1

[4] = molecular target: Gal(b1-3)[Fuc(a1-4)]GlcNAc(b1-2)Man(a1-3)[Gal(b1-3)[Fuc(a1-4)]GlcNAc(b1-2)Man(a1-6)]Man(b1-4)GlcNAc(b1-4)[Fuc(a1-6)]GlcNAc
How it was run: as §1

[5] = molecular target: Gal(b1-3)[Fuc(a1-4)]GlcNAc(b1-3)Gal(b1-3)[Fuc(a1-4)]GlcNAc
How it was run: as §1

[6] = molecular target: Gal(b1-3)[Fuc(a1-4)]GlcNAc(b1-3)Gal(b1-4)[Fuc(a1-3)]GlcNAc
How it was run: as §1

[7] = molecular target: Gal(b1-3)[Fuc(a1-4)]GlcNAc(b1-6)GalNAc
How it was run: as §1

[8] = molecular target: Gal(b1-3)[GlcNAc(b1-6)]GalNAc
How it was run: as §1

[9] = molecular target: Gal(b1-3)[Neu5Ac(a2-6)]GalNAc
How it was run: as §1

[10] = molecular target: Gal(b1-3)[Neu5Ac(a2-6)]GlcNAc(b1-4)Gal(b1-4)Glc
How it was run: as §1

[11] = molecular target: Gal(b1-3)[Neu5Ac(b2-6)]GalNAc
How it was run: as §1

Gal(b1-4)Gal = molecular target: Gal(b1-4)Gal
How it was run: as §1

[12] = molecular target: Gal(b1-4)GalNAc(a1-3)[Fuc(a1-2)]Gal(b1-4)GlcNAc
How it was run: as §1

[13] = molecular target: Gal(b1-4)GalNAc(b1-3)[Fuc(a1-2)]Gal(b1-4)GlcNAc
How it was run: as §1

Gal(b1-4)Glc = molecular target: Gal(b1-4)Glc
How it was run: as §1

Gal(b1-4)Glc6S = molecular target: Gal(b1-4)Glc6S
How it was run: as §1

Gal(b1-4)GlcNAc = molecular target: Gal(b1-4)GlcNAc
How it was run: as §1

[14] = molecular target: Gal(b1-4)GlcNAc(a1-6)Gal(b1-4)GlcNAc
How it was run: as §1

Gal(b1-4)GlcNAc(b1-2)Man = molecular target: Gal(b1-4)GlcNAc(b1-2)Man
How it was run: as §1

[15] = molecular target: Gal(b1-4)GlcNAc(b1-2)Man(a1-3)Man(b1-4)GlcNAc(b1-4)GlcNAc
How it was run: as §1

[16] = molecular target: Gal(b1-4)GlcNAc(b1-2)Man(a1-3)[Gal(b1-4)GlcNAc(b1-2)Man(a1-6)]Man(b1-4)GlcNAc(b1-4)GlcNAc
How it was run: as §1

[17] = molecular target: Gal(b1-4)GlcNAc(b1-2)Man(a1-3)[Gal(b1-4)GlcNAc(b1-2)Man(a1-6)]Man(b1-4)GlcNAc(b1-4)[Fuc(a1-6)]GlcNAc
How it was run: as §1

[18] = molecular target: Gal(b1-4)GlcNAc(b1-2)Man(a1-3)[Gal(b1-4)GlcNAc(b1-2)Man(a1-6)][Gal(b1-4)GlcNAc(b1-4)]Man(b1-4)GlcNAc(b1-4)[Fuc(a1-6)]GlcNAc
How it was run: as §1

[19] = molecular target: Gal(b1-4)GlcNAc(b1-2)Man(a1-3)[Gal(b1-4)GlcNAc(b1-2)Man(a1-6)][GlcNAc(b1-4)]Man(b1-4)GlcNAc(b1-4)[Fuc(a1-6)]GlcNAc
How it was run: as §1

[20] = molecular target: Gal(b1-4)GlcNAc(b1-2)Man(a1-3)[GlcNAc(b1-2)Man(a1-6)]Man(b1-4)GlcNAc(b1-4)GlcNAc
How it was run: as §1

[21] = molecular target: Gal(b1-4)GlcNAc(b1-2)Man(a1-3)[GlcNAc(b1-4)][Gal(b1-4)GlcNAc(b1-2)Man(a1-6)]Man(b1-4)GlcNAc(b1-4)GlcNAc
How it was run: as §1

[22] = molecular target: Gal(b1-4)GlcNAc(b1-2)Man(a1-3)[Man(a1-6)]Man(b1-4)GlcNAc(b1-4)GlcNAc
How it was run: as §1

[23] = molecular target: Gal(b1-4)GlcNAc(b1-2)Man(a1-6)Man(b1-4)GlcNAc(b1-4)GlcNAc
How it was run: as §1

[24] = molecular target: Gal(b1-4)GlcNAc(b1-2)Man(a1-6)[GlcNAc(b1-2)Man(a1-3)]Man(b1-4)GlcNAc(b1-4)GlcNAc
How it was run: as §1

[25] = molecular target: Gal(b1-4)GlcNAc(b1-2)Man(a1-6)[Man(a1-3)]Man(b1-4)GlcNAc(b1-4)GlcNAc
How it was run: as §1

[26] = molecular target: Gal(b1-4)GlcNAc(b1-2)[Gal(b1-4)GlcNAc(b1-4)]Man(a1-3)[Gal(b1-4)GlcNAc(b1-2)Man(a1-6)]Man(b1-4)GlcNAc(b1-4)GlcNAc
How it was run: as §1

[27] = molecular target: Gal(b1-4)GlcNAc(b1-2)[Gal(b1-4)GlcNAc(b1-4)]Man(a1-3)[Gal(b1-4)GlcNAc(b1-2)[Gal(b1-4)GlcNAc(b1-6)]Man(a1-6)]Man(b1-4)GlcNAc(b1-4)GlcNAc
How it was run: as §1

[28] = molecular target: Gal(b1-4)GlcNAc(b1-2)[Gal(b1-4)GlcNAc(b1-4)]Man(a1-3)[GlcNAc(b1-4)][Gal(b1-4)GlcNAc(b1-2)Man(a1-6)]Man(b1-4)GlcNAc(b1-4)GlcNAc
How it was run: as §1

[29] = molecular target: Gal(b1-4)GlcNAc(b1-2)[Gal(b1-4)GlcNAc(b1-4)]Man(a1-3)[GlcNAc(b1-4)][Gal(b1-4)GlcNAc(b1-2)[Gal(b1-4)GlcNAc(b1-6)]Man(a1-6)]Man(b1-4)GlcNAc(b1-4)GlcNAc
How it was run: as §1

[30] = molecular target: Gal(b1-4)GlcNAc(b1-2)[Gal(b1-4)GlcNAc(b1-6)]Man(a1-6)[Gal(b1-4)GlcNAc(b1-2)Man(a1-3)]Man(b1-4)GlcNAc(b1-4)GlcNAc
How it was run: as §1

[31] = molecular target: Gal(b1-4)GlcNAc(b1-2)[Gal(b1-4)GlcNAc(b1-6)]Man(a1-6)[Gal(b1-4)GlcNAc(b1-2)Man(a1-3)]Man(b1-4)GlcNAc(b1-4)[Fuc(a1-6)]GlcNAc
How it was run: as §1

[32] = molecular target: Gal(b1-4)GlcNAc(b1-2)[Gal(b1-4)GlcNAc(b1-6)]Man(a1-6)[GlcNAc(b1-4)][Gal(b1-4)GlcNAc(b1-2)Man(a1-3)]Man(b1-4)GlcNAc(b1-4)GlcNAc
How it was run: as §1

[33] = molecular target: Gal(b1-4)GlcNAc(b1-2)[Gal(b1-4)GlcNAc(b1-6)]Man(a1-6)[GlcNAc(b1-4)][Gal(b1-4)GlcNAc(b1-2)[Gal(b1-4)GlcNAc(b1-4)]Man(a1-3)]Man(b1-4)GlcNAc(b1-4)[Fuc(a1-6)]GlcNAc
How it was run: as §1

[34] = molecular target: Gal(b1-4)GlcNAc(b1-3)Gal(b1-3)GalNAc
How it was run: as §1

[35] = molecular target: Gal(b1-4)GlcNAc(b1-3)Gal(b1-3)GlcNAc
How it was run: as §1

[36] = molecular target: Gal(b1-4)GlcNAc(b1-3)Gal(b1-4)Glc
How it was run: as §1

[37] = molecular target: Gal(b1-4)GlcNAc(b1-3)Gal(b1-4)GlcNAc
How it was run: as §1

[38] = molecular target: Gal(b1-4)GlcNAc(b1-3)Gal(b1-4)GlcNAc(b1-2)Man(a1-3)[Gal(b1-4)GlcNAc(b1-3)Gal(b1-4)GlcNAc(b1-2)Man(a1-6)]Man(b1-4)GlcNAc(b1-4)GlcNAc
How it was run: as §1

[39] = molecular target: Gal(b1-4)GlcNAc(b1-3)Gal(b1-4)GlcNAc(b1-2)Man(a1-3)[Gal(b1-4)GlcNAc(b1-3)Gal(b1-4)GlcNAc(b1-2)Man(a1-6)]Man(b1-4)GlcNAc(b1-4)[Fuc(a1-6)]GlcNAc
How it was run: as §1

B1: Clec18A (Homo sapiens) (protein)
chain: PFHTCDLRIDGDCFMVSSEADTYYRARMKCQRKGGVLAQIKRQKVQDILAFYLGRLETTNEVIDSDFETRNFWIGLTYKTAKDSFRWATGEHQAFTSFAFGQPDNHGFGNCVELQASAAFNWNDQRCKTRNRYICQ
- glycan array binding signal (z-score) [1]: 0.226
- glycan array binding signal (z-score) (Gal(b1-3)GlcNAc6S): 0.315
- glycan array binding signal (z-score) [2]: 2.46
- glycan array binding signal (z-score) [3]: -0.671
- glycan array binding signal (z-score) [4]: 1.53
- glycan array binding signal (z-score) [5]: 0.734
- glycan array binding signal (z-score) [6]: -0.574
- glycan array binding signal (z-score) [7]: 1.03
- glycan array binding signal (z-score) [8]: -0.081
- glycan array binding signal (z-score) [9]: -0.604
- glycan array binding signal (z-score) [10]: 2.76
- glycan array binding signal (z-score) [11]: 2.64
- glycan array binding signal (z-score) (Gal(b1-4)Gal): 2.6
- glycan array binding signal (z-score) [12]: -0.146
- glycan array binding signal (z-score) [13]: 0.926
- glycan array binding signal (z-score) (Gal(b1-4)Glc): 0.104
- glycan array binding signal (z-score) (Gal(b1-4)Glc6S): 0.38
- glycan array binding signal (z-score) (Gal(b1-4)GlcNAc): -0.144
- glycan array binding signal (z-score) [14]: 0.731
- glycan array binding signal (z-score) (Gal(b1-4)GlcNAc(b1-2)Man): -0.289
- glycan array binding signal (z-score) [15]: 0.13
- glycan array binding signal (z-score) [16]: 1.15
- glycan array binding signal (z-score) [17]: 2.1
- glycan array binding signal (z-score) [18]: 0.048
- glycan array binding signal (z-score) [19]: -0.18
- glycan array binding signal (z-score) [20]: 0.338
- glycan array binding signal (z-score) [21]: 0.196
- glycan array binding signal (z-score) [22]: 1.77
- glycan array binding signal (z-score) [23]: 0.546
- glycan array binding signal (z-score) [24]: -0.836
- glycan array binding signal (z-score) [25]: 1.75
- glycan array binding signal (z-score) [26]: 1.42
- glycan array binding signal (z-score) [27]: 0.93
- glycan array binding signal (z-score) [28]: 1.47
- glycan array binding signal (z-score) [29]: -0.093
- glycan array binding signal (z-score) [30]: 1.04
- glycan array binding signal (z-score) [31]: 3.1
- glycan array binding signal (z-score) [32]: -0.289
- glycan array binding signal (z-score) [33]: 0.191
- glycan array binding signal (z-score) [34]: 1.44
- glycan array binding signal (z-score) [35]: -0.605
- glycan array binding signal (z-score) [36]: -0.291
- glycan array binding signal (z-score) [37]: 3.23
- glycan array binding signal (z-score) [38]: 0.042
- glycan array binding signal (z-score) [39]: 1.92
